Results are given in words; binding and its absence hold for the method and conditions named. For some assays here: In cells and extracts the contact can be indirect. Some results given as binding are weak or reduced against the parent protein; the word gives no strength. Blank lines part the entries; values can stand above or below the molecule they belong to.
Tests used:
[1] = molecular target: ASK1 (apoptosis signal-regulating kinase), full-length (UniProt Q99683); test: co-immunoprecipitation with anti-Daxx antibody from 293 cells (FIG. 4A)
[2] = molecular target: ASK1 (apoptosis signal-regulating kinase), full-length (UniProt Q99683); test: co-immunoprecipitation with anti-HA antibody from 293 cells (FIG. 3A)
[3] = molecular target: ASK1 (apoptosis signal-regulating kinase), full-length (UniProt Q99683); test: in vitro pull-down, data not shown
[4] = molecular target: ASK1 (apoptosis signal-regulating kinase), full-length (UniProt Q99683); test: summary of the experiments in the legend of FIG. 1
[5] = molecular target: ASK1 (apoptosis signal-regulating kinase), full-length (UniProt Q99683); test: yeast two-hybrid, B42-Daxx-C with LexA-ASK1 (FIG. 2A)
[6] = molecular target: ASK1 (apoptosis signal-regulating kinase), full-length (UniProt Q99683); test: co-immunoprecipitation with anti-HA antibody from 293 cells, HA-ASK1-F (FIG. 3B)
[7] = molecular target: T1, N-terminal 649 aa of ASK1 (UniProt Q99683); test: co-immunoprecipitation with anti-HA antibody from 293 cells, HA-ASK1-N (FIG. 3B)
T1 sequence (looked up): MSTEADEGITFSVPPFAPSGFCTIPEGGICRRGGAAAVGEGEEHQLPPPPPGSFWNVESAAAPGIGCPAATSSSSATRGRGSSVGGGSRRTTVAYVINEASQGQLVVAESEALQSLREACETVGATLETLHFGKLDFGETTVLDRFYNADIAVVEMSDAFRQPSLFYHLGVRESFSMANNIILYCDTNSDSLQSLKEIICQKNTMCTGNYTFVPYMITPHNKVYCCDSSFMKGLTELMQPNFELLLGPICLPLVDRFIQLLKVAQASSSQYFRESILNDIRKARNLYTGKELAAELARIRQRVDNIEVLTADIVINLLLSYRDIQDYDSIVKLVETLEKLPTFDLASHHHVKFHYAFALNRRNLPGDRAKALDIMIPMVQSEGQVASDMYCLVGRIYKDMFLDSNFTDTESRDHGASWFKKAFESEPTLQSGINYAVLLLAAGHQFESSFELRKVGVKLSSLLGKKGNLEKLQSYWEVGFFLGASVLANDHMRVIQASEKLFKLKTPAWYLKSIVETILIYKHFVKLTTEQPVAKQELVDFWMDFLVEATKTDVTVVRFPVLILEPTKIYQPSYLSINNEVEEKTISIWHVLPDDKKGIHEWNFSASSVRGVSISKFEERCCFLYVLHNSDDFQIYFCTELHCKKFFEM

binding [1]: binds
Molecule: human Daxx, full-length (from UniProt Q9UER7 1-740)

binding [2]: binds
binding [3]: binds
binding [4]: binds
B1: C-terminal 539 aa catalytic domain of human glutaminyl-tRNA synthetase (enzyme, UniProt P47897 237-775, looked up)
chain: NYKTPGYVVTPHTMNLLKQHLEITGGQVRTRFPPEPNGILHIGHAKAINFNFGYAKANNGICFLRFDDTNPEKEEAKFFTAICDMVAWLGYTPYKVTYASDYFDQLYAWAVELIRRGLAYVCHQRGEELKGHNTLPSPWRDRPMEESLLLFEAMRKGKFSEGEATLRMKLVMEDGKMDPVAYRVKYTPHHRTGDKWCIYPTYDYTHCLCDSIEHITHSLCTKEFQARRSSYFWLCNALDVYCPVQWEYGRLNLHYAVVSKRKILQLVATGAVRDWDDPRLFTLTALRRRGFPPEAINNFCARVGVTVAQTTMEPHLLEACVRDVLNDTAPRAMAVLESLRVIITNFPAAKSLDIQVPNFPADETKGFHQVPFAPIVFIERTDFKEEPEPGFKRLAWGQPVGLRHTGYVIELQHVVKGPSGCVESLEVTCRRADAGEKPKAFIHWVSQPLMCEVRLYERLFQHKNPEDPTEVPGGFLSDLNLASLHVVDAALVDCSVALAKPFDKFQFERLGYFSVDPDSHQGKLVFNRTVTLKEDPGKV

binding [5]: binds
B2: C-terminal 137 aa peptide of human Daxx (G604-D740) (other, UniProt Q9UER7 604-740, looked up)
chain: GAGMVSSTSFNGGVSPHNWGDSGPPCKKSRKEKKQTGSGPLGNSYVERQRSVHEKNGKKICTLPSPPSPLASLAPVADSSTRVDSPSHGLVTSSLCIPSPARLSQTPHSQPPRPGTCKTSVATQCDPEEIIVLSDSD
notes: range 604-740; B42 fusion in yeast two-hybrid; His fusion (pET28a), purified, in the in vitro pull-down; also called Daxx-C; B42-Daxx-C

binding [2]: binds
binding [6]: binds
binding [7]: binds
B3: human glutaminyl-tRNA synthetase, full-length (enzyme, UniProt P47897 1-775, looked up)
chain: MAALDSLSLFTSLGLSEQKARETLKNSALSAQLREAATQAQQTLGSTIDKATGILLYGLASRLRDTRRLSFLVSYIASKKIHTEPQLSAALEYVRSHPLDPIDTVDFERECGVGVIVTPEQIEEAVEAAINRHRPQLLVERYHFNMGLLMGEARAVLKWADGKMIKNEVDMQVLHLLGPKLEADLEKKFKVAKARLEETDRRTAKDVVENGETADQTLSLMEQLRGEALKFHKPGENYKTPGYVVTPHTMNLLKQHLEITGGQVRTRFPPEPNGILHIGHAKAINFNFGYAKANNGICFLRFDDTNPEKEEAKFFTAICDMVAWLGYTPYKVTYASDYFDQLYAWAVELIRRGLAYVCHQRGEELKGHNTLPSPWRDRPMEESLLLFEAMRKGKFSEGEATLRMKLVMEDGKMDPVAYRVKYTPHHRTGDKWCIYPTYDYTHCLCDSIEHITHSLCTKEFQARRSSYFWLCNALDVYCPVQWEYGRLNLHYAVVSKRKILQLVATGAVRDWDDPRLFTLTALRRRGFPPEAINNFCARVGVTVAQTTMEPHLLEACVRDVLNDTAPRAMAVLESLRVIITNFPAAKSLDIQVPNFPADETKGFHQVPFAPIVFIERTDFKEEPEPGFKRLAWGQPVGLRHTGYVIELQHVVKGPSGCVESLEVTCRRADAGEKPKAFIHWVSQPLMCEVRLYERLFQHKNPEDPTEVPGGFLSDLNLASLHVVDAALVDCSVALAKPFDKFQFERLGYFSVDPDSHQGKLVFNRTVTLKEDPGKV

Source: patent US6548060 (dated 2003)
